Screening data, single-dose tests

Amino acid sequences for entries named in this document (tags omitted). Residues count along the entry.
UniProt P9WNZ1, whole entry: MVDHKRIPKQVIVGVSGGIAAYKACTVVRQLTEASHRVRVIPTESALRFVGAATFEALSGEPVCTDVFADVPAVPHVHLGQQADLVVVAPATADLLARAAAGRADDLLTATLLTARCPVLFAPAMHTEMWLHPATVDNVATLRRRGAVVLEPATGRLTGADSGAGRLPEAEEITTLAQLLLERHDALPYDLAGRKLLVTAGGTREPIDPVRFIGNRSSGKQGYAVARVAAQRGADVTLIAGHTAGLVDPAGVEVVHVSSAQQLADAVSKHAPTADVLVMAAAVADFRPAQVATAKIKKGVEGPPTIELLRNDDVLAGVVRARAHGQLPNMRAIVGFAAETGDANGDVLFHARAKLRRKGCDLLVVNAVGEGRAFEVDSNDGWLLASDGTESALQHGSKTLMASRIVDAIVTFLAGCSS
UniProt Q8IDJ8, 1-583: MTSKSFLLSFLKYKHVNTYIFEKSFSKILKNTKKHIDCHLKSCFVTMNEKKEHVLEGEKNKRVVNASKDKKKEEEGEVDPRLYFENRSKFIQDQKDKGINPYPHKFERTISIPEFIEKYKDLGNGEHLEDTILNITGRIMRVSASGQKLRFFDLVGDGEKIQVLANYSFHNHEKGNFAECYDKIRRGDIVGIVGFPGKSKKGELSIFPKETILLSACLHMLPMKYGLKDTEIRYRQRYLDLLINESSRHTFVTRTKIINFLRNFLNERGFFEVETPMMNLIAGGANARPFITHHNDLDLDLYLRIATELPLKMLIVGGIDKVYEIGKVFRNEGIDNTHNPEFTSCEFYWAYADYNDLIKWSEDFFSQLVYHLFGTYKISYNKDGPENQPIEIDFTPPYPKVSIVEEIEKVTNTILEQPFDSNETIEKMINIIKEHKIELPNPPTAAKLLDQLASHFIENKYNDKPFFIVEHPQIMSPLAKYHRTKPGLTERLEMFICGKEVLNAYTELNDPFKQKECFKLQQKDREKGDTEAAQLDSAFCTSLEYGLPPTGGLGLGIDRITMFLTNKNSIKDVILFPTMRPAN
UniProt A4I591, 1-473: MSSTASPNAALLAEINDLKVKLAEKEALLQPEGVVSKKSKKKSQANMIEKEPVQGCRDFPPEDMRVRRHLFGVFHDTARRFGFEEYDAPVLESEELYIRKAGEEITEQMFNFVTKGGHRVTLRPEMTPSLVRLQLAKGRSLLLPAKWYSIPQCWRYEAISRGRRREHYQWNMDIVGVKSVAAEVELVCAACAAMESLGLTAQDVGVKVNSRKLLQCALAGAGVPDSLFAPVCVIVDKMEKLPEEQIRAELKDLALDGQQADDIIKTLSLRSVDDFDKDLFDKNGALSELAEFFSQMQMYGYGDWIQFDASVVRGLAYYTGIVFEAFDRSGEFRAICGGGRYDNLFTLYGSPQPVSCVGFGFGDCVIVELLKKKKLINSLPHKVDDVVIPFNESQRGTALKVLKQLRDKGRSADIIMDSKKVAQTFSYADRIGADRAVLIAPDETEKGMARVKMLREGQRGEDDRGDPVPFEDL

Source: ChEMBL document CHEMBL3988442, “University of Dundee, Small-Polar-MMV Screening Library” (2021).

CoaBC: 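Enzyme assay of CoaBC with a phosphate dye (Biomol Green) read at 650 nm. Target: Coenzyme A biosynthesis protein CoaBC, Mycobacterium tuberculosis (UniProt P9WNZ1). Compounds at 30 µM. Higher reads as stronger inhibition, judged from the few compounds that gave an IC50. Most strong results did not repeat in a second test. Size under these conditions: about 67,000 compounds, about 40 of them at 50% or above in at least one test.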
PfKRS1: 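Lysine-tRNA ligase, Plasmodium falciparum 3D7 (UniProt Q8IDJ8). Enzyme assay of the cytosolic lysyl-tRNA synthetase in 384-well plates, read by luminescence. Tested at 30 µM. Direction is inferred from only a few compounds that gave an IC50; most scored high, so higher reads as stronger inhibition. Size under these conditions: about 69,000 compounds, about 49 of them at 50% or above in at least one test.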
LiHisRS: 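Enzyme assay of histidyl-tRNA synthetase; the read-out is not stated. Target: Histidine-tRNA ligase, Leishmania infantum (UniProt A4I591). Concentration: 30 µM. Direction is inferred from retests: higher values go with stronger inhibition. The assay is labelled LdHisRS but filed under L. infantum. About 69,000 compounds were tested under these conditions; 0.6% (about 410) showed 50% or more at least once.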

Each number is a percent effect as filed.
The record does not define 0% and 100%; most values in the screen are far below 50% and negative numbers occur (in some assays of this library far below -100).
Compounds were drawn at random from those tested, without regard to their results.

O=C1CC[C@@H]2[C@@H](CCN2Cc2ccccn2)N1CC1CC1 read CoaBC: 4.762%; PfKRS1: 0.6208%; LiHisRS: 23.08%. O=C(c1ccnnc1)N1CCN2C[C@H](OCc3cccnc3)C[C@H]2C1 gave CoaBC: 2.25%; PfKRS1: 1.187%; LiHisRS: 28%. CNCC(=O)Nc1cccc(-c2cnc(NCCS(C)(=O)=O)nc2)c1 read CoaBC: 5.181%; PfKRS1: 4.719%; LiHisRS: 14.29%. COc1ccc(OCc2nc(C(=O)N3CCCNC(=O)C3)co2)cc1 gave CoaBC: 6.8%; PfKRS1: 6.568%; LiHisRS: 12.82%. CC(C)C(C)(C#N)NC(=O)CN1CCC(c2ccnn2CCO)CC1 (stereo unspecified) gave CoaBC: 1.312%; PfKRS1: 1.552%; LiHisRS: 8.475%. For Cc1ccc(-c2noc(C(C)(C)NS(C)(=O)=O)n2)cc1F the result was CoaBC: -0.7229%; PfKRS1: 2.7%; LiHisRS: 16.48%. For CC(C)c1nnc(NC(=O)N2CCCC2c2ccncc2)s1 (stereo unspecified) the result was PfKRS1: -5.367%; LiHisRS: 9.167%. Cc1cccc(CN2CC3(CCN(Cc4ccco4)CC3)OCC2=O)n1 gave CoaBC: -2.716%; PfKRS1: -1.32%; LiHisRS: 6.944%.

With CCOc1ncccc1CNC(=O)NC1CCOc2ccccc21 (stereo unspecified) the screen gave CoaBC: 5.747%; PfKRS1: 1.276%; LiHisRS: 11.61%. Cc1ncc(-c2ccnc(SCCN(C)C)n2)c(-c2ccco2)n1 read CoaBC: -0.8434%; PfKRS1: 0.2099%; LiHisRS: 0%. O=C1CO[C@H]2CN(S(=O)(=O)c3ccccc3)C[C@H]2N1Cc1ccccc1 gave CoaBC: 1.58%; PfKRS1: 5.32%; LiHisRS: 25%. For CCN1CC(C(=O)NCc2ccnc(-n3cccn3)c2)CC1=O (stereo unspecified) the result was CoaBC: -0.2632%; PfKRS1: -0.5421%; LiHisRS: 6.481%. For COc1ccc(C(C)N2CCN(Cc3nccn3C)CC2)cc1Cl (stereo unspecified) the result was CoaBC: 5.301%; PfKRS1: 6.086%; LiHisRS: -8.219%. For CN(Cc1ccco1)C(=O)NCC(c1cccs1)N(C)C (stereo unspecified) the result was PfKRS1: -3.651%; LiHisRS: 8.571%. Result for CSCC(C)(O)CNC(=O)c1ccc(Br)cc1C (stereo unspecified) was CoaBC: 3.084%; PfKRS1: 2.056%; LiHisRS: -1.887%. CCNC(=O)CNC(=O)c1nc(C2CC2)n(-c2ccccc2Cl)n1 read CoaBC: -3.682%; PfKRS1: 3.221%; LiHisRS: 8.333%.

O=C(Cc1cccnc1)N1CCCC1c1noc(C2CC2)n1 (stereo unspecified) gave CoaBC: -7.081%; PfKRS1: -2.493%; LiHisRS: 0%. COCCn1c2c(ccc1=O)CC(NCc1cccnc1OC)CC2 (stereo unspecified) read CoaBC: 5.817%; PfKRS1: 4.799%; LiHisRS: 9.901%. CC(C)(O)CN1CCN(C(=O)c2cccnc2O)CC1 gave CoaBC: 0%; PfKRS1: -5.767%; LiHisRS: -10.64%. CO[C@@H]1CO[C@@]2(CCCN(C(=O)N3CCCC3)C2)C1 gave CoaBC: 2.222%; PfKRS1: 5.639%; LiHisRS: 10%. With CN1CCN(c2ccccc2NC(=O)c2ccco2)CC1 the screen gave CoaBC: 3.169%; PfKRS1: 4.492%; LiHisRS: 18.99%. N[C@H]1c2ccccc2C[C@@H]1NC(=O)C1CCN(Cc2ccco2)CC1 gave CoaBC: 3.511%; PfKRS1: 5.469%; LiHisRS: 35.87%.

Once more, the final 2:

{"structure": "CN1CCN(c2ccccc2NC(=O)c2ccco2)CC1", "CoaBC": 3.169, "PfKRS1": 4.492, "LiHisRS": 18.99}
{"structure": "N[C@H]1c2ccccc2C[C@@H]1NC(=O)C1CCN(Cc2ccco2)CC1", "CoaBC": 3.511, "PfKRS1": 5.469, "LiHisRS": 35.87}